Data published in patent US12221649B2 (priority 2018, dated 2025).
At least one read-out could not be matched to a standard name with certainty.

Assays:
[1] = molecular target: T1, CPB (Homo sapiens, UniProt P15086); experiment: Enzyme reaction rate parameters with CPB (fluorescence method, plate reader); type: biochemical
T1 sequence (P15086 111-417): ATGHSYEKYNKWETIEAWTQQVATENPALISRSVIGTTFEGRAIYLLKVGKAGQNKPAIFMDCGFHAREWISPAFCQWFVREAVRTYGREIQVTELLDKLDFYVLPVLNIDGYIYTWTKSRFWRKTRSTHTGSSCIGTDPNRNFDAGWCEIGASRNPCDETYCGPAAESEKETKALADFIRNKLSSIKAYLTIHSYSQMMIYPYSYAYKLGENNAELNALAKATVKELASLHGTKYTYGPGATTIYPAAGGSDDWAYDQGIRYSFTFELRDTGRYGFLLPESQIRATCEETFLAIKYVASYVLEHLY
Description: (§1) In addition, an enzyme reaction rate parameter was calculated.
(§2) All experiments were performed at 37° C. in a total volume of 20 μL of phosphate buffered saline (pH 7.4) containing DMSO as a co-solvent. 5 ng of CPB or CPM was added. An enzyme reaction initial rate was calculated from a fluorescence change at 535 nm using a plate reader (n=3). The excitation wavelength was 485 nm.

[2] = molecular target: T2, carboxypeptidase M (CPM) (Homo sapiens, UniProt P14384); experiment: Enzyme reaction rate parameters with CPM (fluorescence method, plate reader); type: biochemical; conditions: CPM 5 ng, 37° C., PBS pH 7.4, 20 μL, apparent
T2 sequence (P14384 18-423): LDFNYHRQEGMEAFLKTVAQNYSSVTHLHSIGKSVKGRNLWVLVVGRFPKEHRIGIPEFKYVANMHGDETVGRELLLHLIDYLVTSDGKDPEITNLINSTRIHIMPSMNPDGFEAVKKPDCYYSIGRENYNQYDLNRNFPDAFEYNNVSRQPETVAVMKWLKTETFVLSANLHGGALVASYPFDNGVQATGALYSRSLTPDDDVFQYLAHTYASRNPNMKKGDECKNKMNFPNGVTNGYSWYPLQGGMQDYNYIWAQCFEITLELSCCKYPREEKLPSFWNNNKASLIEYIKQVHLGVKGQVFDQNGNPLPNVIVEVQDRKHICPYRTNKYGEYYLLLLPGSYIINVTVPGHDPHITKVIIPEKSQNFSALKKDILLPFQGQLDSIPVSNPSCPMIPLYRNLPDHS
Description: as §1, §2

Question: For C[C@H](NP(=O)(Oc1ccc2c(c1)Oc1cc(NCC(F)(F)F)ccc1C21OCc2ccccc21)C(C)(C)C)C(=O)N[C@@H](CCCNC(=N)N)C(=O)O (stereo partly drawn) [HMRef-tSoul-AR], which kcat/Km ([1]; CPB 5 ng, 37° C., PBS pH 7.4, 20 μL, apparent) is on record?
Answer: The kcat/Km was 34000 M⁻¹ s⁻¹.

Question: What about the “kcat/Km with CPB compared with first generation probe diClHMRBC-CONH-Arg” value ([1]; relative to diClHMRBC-CONH-Arg) of the same compound?
Answer: Its value is “increased by about one order”.

Question: What about the kcat/Km [2] of the same compound?
Answer: Its kcat/Km is 16000 M⁻¹ s⁻¹.
